# Measured values: patent US20210379046A1, “Methods of Treating Diseases Using Kinase Modulators” (Memorial Sloan Kettering Cancer Center, priority 2018, published 2021)
# Columns and labels:
# [1] = tested on: TPC1 cells; assay: Flow cytometry of ESK1 (TCR mimic antibody) binding to TPC1 cells; assay type: cell-based, human; conditions: TPC1, 72 hours treatment
# Description: If adherent cells, they were seeded one day before treatment.
# [2] = tested on: TPC1 cells; assay: RNA-seq of TPC1 cells after RET inhibitor treatment; assay type: cell-based, human
# Description: For RNA-seq analysis total RNA was extracted using the RNeasy Mini Kit (Qiagen) after treatment of TPC-1 cells with either DMSO, AST487 or Cabozantinib for 72 hours. Purified polyA mRNA was subsequently fragmented, and first and second strand cDNA synthesis performed using standard Illumina mRNA TruSeq library preparation protocols. Double stranded cDNA was subsequently processed for TruSeq dual-index Illumina library generation. For sequencing, pooled multiplexed libraries were run on a HiSeq 2500 machine on RAPID mode. Approximately 10 million 76 bp single-end reads were retrieved per replicate condition. Resulting RNA-Seq data was analyzed by removing adaptor sequences using Trimmomatic, aligning sequencing data to GRCh37.75(hg19) with STAR, and genome wide transcript counting using HTSeq to generate a RPKM matrix of transcript counts. This RPKM matrix was further log (log 2) transformed and normalized per gene to obtain the Z-score. Differential gene expression was analyzed by looking at fold changes between experimental conditions.
compound,measurement,setting,value
CCN1CCN(Cc2ccc(NC(=O)Nc3ccc(Oc4cc(NC)ncn4)cc3)cc2C(F)(F)F)CC1 [AST487],ESK binding after RET inhibitor treatment,[1],Increased binding of ESK
same,newly identified HLA ligands with at least a 2-fold increase in mRNA levels,[2]; TPC1,four
same,genes upregulated at least two-fold,"[2]; TPC1, 72 hours",32
